In the supplement of paper PMC10849652:
The other results are listed elsewhere or left out.

Chains of the proteins cited; added tags and fusions are not shown. Lines headed by an entry give the natural chain unless they say otherwise; changes in a name come on top.
UniProt Q8WUK0: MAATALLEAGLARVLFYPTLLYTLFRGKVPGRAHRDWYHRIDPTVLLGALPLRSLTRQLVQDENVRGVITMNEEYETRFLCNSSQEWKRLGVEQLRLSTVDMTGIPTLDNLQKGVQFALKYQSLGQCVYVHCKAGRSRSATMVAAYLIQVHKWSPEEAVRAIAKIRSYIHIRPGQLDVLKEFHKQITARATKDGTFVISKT
UniProt Q9H0K6: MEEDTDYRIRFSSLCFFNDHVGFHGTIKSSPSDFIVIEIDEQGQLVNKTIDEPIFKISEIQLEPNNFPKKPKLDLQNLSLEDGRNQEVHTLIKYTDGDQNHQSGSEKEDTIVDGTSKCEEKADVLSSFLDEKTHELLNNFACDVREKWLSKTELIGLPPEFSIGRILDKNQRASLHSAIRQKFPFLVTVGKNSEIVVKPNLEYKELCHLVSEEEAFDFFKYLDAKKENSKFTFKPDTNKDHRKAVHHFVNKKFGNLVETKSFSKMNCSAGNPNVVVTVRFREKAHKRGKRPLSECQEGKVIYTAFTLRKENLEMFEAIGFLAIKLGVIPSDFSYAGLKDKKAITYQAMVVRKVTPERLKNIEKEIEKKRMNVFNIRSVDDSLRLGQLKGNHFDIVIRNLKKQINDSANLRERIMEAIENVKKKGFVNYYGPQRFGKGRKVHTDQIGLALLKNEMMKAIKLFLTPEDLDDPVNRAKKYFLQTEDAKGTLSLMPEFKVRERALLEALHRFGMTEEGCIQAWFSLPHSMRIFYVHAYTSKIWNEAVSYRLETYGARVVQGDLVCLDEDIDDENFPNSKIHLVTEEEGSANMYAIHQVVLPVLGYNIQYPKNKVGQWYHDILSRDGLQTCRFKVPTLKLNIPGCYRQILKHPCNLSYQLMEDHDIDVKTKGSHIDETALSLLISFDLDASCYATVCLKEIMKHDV
UniProt P51665: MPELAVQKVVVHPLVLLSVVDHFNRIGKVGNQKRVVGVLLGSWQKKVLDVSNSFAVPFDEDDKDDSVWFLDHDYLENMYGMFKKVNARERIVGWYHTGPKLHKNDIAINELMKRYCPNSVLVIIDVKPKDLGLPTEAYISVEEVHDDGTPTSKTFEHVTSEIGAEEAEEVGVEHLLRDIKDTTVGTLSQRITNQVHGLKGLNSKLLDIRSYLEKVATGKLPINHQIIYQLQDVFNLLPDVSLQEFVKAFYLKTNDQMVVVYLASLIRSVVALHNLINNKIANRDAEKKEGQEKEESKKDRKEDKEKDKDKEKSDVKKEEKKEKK
UniProt P53801: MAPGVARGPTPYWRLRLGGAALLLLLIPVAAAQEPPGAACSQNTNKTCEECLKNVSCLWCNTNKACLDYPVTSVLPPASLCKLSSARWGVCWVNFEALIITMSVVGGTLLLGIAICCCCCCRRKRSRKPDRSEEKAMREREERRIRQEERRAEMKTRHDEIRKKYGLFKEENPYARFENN
UniProt Q9UNM6: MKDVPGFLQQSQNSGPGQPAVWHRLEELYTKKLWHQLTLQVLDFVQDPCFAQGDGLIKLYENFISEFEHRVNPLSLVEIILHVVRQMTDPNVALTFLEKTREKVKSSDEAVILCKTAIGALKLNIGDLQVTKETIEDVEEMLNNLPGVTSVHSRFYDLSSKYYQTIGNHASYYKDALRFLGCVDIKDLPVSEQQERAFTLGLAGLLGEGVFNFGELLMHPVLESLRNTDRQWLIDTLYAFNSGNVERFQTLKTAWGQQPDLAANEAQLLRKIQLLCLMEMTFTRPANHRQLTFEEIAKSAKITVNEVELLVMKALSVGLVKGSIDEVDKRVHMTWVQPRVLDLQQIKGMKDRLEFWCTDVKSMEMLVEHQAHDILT
UniProt P26599: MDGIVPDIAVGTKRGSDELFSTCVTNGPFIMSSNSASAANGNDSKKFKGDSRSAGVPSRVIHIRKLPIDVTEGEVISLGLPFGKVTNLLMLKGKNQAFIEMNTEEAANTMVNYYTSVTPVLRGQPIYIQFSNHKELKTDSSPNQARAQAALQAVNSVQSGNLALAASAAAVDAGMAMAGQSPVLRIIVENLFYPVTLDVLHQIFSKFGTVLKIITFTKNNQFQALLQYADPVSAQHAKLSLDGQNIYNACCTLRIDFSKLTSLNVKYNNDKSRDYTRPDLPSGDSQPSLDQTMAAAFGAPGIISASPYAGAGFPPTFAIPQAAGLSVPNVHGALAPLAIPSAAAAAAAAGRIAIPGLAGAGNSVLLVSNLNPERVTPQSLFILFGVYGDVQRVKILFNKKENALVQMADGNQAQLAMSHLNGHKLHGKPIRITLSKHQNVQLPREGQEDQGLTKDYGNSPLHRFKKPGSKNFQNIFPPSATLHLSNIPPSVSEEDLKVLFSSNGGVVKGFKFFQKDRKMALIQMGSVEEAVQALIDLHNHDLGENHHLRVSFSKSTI
UniProt Q96PZ0: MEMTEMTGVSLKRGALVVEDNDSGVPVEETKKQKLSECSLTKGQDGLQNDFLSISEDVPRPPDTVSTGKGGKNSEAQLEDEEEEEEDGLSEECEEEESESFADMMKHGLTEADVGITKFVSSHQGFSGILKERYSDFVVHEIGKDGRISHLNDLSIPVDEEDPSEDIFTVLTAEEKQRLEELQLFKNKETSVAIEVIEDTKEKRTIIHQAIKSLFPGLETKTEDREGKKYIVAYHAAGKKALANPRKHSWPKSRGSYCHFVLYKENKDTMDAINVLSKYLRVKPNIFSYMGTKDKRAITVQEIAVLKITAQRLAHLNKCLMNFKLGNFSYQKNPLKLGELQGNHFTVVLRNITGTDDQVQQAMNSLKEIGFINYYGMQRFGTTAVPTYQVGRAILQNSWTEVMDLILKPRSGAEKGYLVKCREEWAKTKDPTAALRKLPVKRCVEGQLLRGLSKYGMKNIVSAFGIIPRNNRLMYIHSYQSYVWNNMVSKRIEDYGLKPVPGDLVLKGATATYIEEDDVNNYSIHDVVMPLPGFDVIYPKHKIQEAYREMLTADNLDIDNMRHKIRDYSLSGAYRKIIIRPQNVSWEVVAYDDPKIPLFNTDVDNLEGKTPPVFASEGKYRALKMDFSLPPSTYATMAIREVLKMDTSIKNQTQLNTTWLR
UniProt Q15274: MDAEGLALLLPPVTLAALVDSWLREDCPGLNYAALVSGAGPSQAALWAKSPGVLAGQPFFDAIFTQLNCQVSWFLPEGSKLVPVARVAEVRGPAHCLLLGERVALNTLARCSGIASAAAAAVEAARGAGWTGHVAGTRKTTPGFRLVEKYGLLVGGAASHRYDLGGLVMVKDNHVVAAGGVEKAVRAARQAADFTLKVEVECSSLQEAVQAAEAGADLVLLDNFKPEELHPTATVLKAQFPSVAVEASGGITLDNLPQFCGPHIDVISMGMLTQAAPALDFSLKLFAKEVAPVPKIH
UniProt P11216: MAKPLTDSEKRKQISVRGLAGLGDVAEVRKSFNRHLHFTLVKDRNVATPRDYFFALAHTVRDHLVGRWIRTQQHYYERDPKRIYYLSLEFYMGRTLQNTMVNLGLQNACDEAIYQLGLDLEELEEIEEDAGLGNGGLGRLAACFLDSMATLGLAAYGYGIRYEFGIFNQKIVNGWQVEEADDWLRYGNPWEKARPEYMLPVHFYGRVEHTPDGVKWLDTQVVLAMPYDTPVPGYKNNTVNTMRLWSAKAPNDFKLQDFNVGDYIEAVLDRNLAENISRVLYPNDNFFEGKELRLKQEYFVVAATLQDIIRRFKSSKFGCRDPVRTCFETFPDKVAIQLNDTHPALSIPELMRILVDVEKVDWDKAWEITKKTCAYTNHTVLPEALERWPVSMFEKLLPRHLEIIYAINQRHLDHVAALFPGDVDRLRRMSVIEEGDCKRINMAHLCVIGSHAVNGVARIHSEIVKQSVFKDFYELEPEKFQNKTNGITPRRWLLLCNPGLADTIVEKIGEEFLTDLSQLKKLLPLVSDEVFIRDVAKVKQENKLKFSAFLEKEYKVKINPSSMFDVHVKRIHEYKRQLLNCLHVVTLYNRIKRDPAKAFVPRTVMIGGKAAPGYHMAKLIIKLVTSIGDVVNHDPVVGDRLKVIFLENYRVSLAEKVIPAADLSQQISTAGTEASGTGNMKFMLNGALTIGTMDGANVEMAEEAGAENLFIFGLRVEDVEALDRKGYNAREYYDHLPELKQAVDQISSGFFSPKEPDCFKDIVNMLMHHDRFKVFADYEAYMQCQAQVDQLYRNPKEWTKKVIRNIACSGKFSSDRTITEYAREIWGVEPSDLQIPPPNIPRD
UniProt Q99436: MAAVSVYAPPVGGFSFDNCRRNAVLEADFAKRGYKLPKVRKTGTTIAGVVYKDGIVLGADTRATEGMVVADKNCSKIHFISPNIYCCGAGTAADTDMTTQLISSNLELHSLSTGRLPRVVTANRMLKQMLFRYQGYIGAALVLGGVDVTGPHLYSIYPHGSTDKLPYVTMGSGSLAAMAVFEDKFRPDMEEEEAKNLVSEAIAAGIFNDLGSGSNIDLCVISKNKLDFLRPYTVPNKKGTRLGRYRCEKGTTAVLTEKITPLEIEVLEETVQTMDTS
UniProt Q9NR77: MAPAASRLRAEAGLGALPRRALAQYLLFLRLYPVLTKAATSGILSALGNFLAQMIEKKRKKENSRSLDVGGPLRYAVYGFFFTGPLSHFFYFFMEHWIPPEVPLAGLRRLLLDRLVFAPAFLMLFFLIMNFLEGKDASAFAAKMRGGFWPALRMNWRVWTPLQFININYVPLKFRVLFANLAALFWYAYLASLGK
UniProt Q08623: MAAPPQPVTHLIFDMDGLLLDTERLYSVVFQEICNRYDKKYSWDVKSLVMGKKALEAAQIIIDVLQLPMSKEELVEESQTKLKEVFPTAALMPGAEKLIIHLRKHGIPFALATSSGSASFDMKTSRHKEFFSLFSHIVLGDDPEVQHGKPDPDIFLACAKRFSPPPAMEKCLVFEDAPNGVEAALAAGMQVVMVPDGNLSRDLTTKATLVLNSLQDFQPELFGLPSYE
UniProt Q05209: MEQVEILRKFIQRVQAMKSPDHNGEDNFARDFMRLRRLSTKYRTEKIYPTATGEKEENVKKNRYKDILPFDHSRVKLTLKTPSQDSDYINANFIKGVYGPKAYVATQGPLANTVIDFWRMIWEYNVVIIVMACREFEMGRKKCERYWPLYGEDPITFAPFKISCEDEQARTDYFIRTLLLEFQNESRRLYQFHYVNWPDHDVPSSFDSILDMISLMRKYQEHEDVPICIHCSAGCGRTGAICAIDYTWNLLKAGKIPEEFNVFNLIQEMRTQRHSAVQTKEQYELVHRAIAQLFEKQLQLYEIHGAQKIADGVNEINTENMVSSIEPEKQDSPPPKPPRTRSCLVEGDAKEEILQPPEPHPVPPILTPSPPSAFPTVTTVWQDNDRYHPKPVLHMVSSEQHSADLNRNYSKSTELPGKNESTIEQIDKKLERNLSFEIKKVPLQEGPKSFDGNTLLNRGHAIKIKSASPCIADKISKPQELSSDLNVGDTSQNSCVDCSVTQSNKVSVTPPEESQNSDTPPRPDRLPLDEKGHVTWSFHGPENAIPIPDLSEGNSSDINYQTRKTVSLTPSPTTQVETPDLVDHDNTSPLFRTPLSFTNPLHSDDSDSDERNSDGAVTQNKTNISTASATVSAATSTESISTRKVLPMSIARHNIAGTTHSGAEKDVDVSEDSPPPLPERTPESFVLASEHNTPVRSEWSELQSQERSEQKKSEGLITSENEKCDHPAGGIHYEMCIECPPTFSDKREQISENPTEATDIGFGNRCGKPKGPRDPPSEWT
UniProt Q9Y3E5: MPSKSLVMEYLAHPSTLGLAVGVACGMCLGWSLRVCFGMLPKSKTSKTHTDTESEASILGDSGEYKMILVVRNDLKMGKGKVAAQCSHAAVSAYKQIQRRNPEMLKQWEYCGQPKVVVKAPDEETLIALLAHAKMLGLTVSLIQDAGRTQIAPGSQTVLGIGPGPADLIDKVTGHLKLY
UniProt P47897: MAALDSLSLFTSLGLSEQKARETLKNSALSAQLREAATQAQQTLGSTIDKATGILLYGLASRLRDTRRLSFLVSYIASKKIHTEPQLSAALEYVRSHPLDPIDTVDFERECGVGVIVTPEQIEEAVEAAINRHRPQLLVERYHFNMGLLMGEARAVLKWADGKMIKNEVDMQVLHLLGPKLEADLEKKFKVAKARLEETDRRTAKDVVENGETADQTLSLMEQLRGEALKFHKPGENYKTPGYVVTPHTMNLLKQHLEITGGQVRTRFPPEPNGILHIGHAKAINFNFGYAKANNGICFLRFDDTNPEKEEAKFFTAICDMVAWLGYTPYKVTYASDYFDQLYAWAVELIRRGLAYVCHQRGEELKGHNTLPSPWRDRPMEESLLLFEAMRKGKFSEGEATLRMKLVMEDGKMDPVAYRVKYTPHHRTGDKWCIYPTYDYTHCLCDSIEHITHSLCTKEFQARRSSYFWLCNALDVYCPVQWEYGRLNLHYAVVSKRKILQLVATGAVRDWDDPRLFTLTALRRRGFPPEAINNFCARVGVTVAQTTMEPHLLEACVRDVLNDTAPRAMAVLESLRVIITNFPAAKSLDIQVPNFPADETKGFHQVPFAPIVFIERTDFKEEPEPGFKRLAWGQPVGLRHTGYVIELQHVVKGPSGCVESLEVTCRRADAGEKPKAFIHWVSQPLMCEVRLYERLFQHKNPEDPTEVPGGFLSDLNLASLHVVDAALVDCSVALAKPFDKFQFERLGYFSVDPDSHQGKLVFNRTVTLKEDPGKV

Tests used:
Test in all cases: log2 fold change, soluble protein after heating vs DMSO (PISA); higher = thermal stabilisation; K562 cells, 10 uM, 30 min; active = over 0.2 and 3.5 SD of the protein, either way, in both replicates (recomputed)
[1] = compound: C1=CC=C(C=C1)[C@H](COC2=CC3=C(C=C2)NC(=O)N3)NC(=O)C4=CC=CN(C4=O)CC5=CC(=C(C=C5)F)F
Procedure, shortened: (§1)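 Values are thermal stability changes relative to control samples and are taken from duplicates. They are stated as log2 fold changes. Before quantification by TMTpro 16plex LC-MS/MS with equalised channel sums, K562 cells at 2×10^6 cells/mL were treated with 10 μM compound for 30 min, heated in aliquots for 3 min across 48°C-58°C, pooled, extracted in PBS with 0.5% NP-40 at 4°C, and centrifuged at 21,000xg for 90 min to give the soluble supernatant.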

[2] = compound: CC1=C(SC2=C1C(=N[C@H](C3=NN=C(N32)C)CC(=O)N)C4=CC=C(C=C4)Cl)C
Procedure, shortened: as §1

[3] = compound: CC1=C2C(=CC=C1)N=C(N(C2=O)C3=CC=CC=C3C)CN4C=NC5=C(N=CN=C54)N
Procedure, shortened: as §1

[4] = compound: Cc1sc2c(c1C)C(c1ccc(Cl)cc1)=N[C@@H](CC(=O)OC(C)(C)C)c1nnc(C)n1-2
Procedure, shortened: as §1

[5] = compound: c1ccc([C@@H]2C[C@H]2NC2CCNCC2)cc1
Procedure, shortened: as §1

Target | log2 fold change [1] | log2 fold change [2] | log2 fold change [3] | log2 fold change [4] | log2 fold change [5]
PSMG4 isoform 2 (UniProt Q5JS54) | inactive: 0.048 | inactive: -0.196 | inactive: -0.087 | inactive: -0.107 | inactive: 0.118
PURB (UniProt Q96QR8) | inactive: 0.018 | inactive: -0.261 | inactive: -0.112 | inactive: 0.203 | inactive: 0.115
PTDSS1 (UniProt P48651) | inactive: -0.027 | inactive: -0.072 | inactive: -0.115 | inactive: 0.042 | inactive: 0.017
PSMD4 (UniProt P55036) | inactive: 0.025 | inactive: -0.058 | inactive: -0.096 | inactive: 0.007 | inactive: -0.005
PSMD12 (UniProt O00232) | inactive: 0.021 | inactive: -0.063 | inactive: -0.066 | inactive: -0.045 | inactive: -0.009
PYM1 (UniProt Q9BRP8) | inactive: 0.051 | inactive: -0.101 | inactive: -0.087 | inactive: 0.056 | inactive: 0.027
PTPMT1 (UniProt Q8WUK0) | inactive: -0.019 | inactive: 0.086 | inactive: 0.029 | inactive: 0.066 | inactive: 0.01
PUS7L (UniProt Q9H0K6) | inactive: -0.05 | inactive: 0.03 | inactive: 0.013 | inactive: 0.005 | inactive: 0.032
PTP4A2 (UniProt Q12974) | inactive: -0.021 | inactive: 0.028 | inactive: 0.056 | inactive: 0.052 | inactive: -0.029
PSMD7 (UniProt P51665) | inactive: 0.033 | inactive: -0.102 | inactive: -0.024 | inactive: 0.034 | inactive: 0
PVR (UniProt P15151) | inactive: 0.009 | inactive: 0.102 | inactive: 0.007 | inactive: -0.008 | inactive: -0.004
PTTG1IP (UniProt P53801) | inactive: 0.149 | inactive: -0.055 | inactive: -0.134 | inactive: 0.04 | inactive: 0.084
PTGR2 (UniProt Q8N8N7) | inactive: 0.004 | inactive: 0.055 | active: 0.581 | inactive: -0.043 | inactive: -0.091
PTRHD1 (UniProt Q6GMV3) | inactive: -0.002 | inactive: 0.056 | inactive: 0.046 | inactive: -0.073 | inactive: 0.033
PSMA5 (UniProt P28066) | inactive: 0.037 | inactive: -0.001 | inactive: -0.027 | inactive: 0.011 | inactive: 0.029
PTCD3 (UniProt Q96EY7) | inactive: 0.03 | inactive: -0.019 | inactive: 0.009 | inactive: 0.027 | inactive: -0.002
PSMD13 (UniProt Q9UNM6) | inactive: -0.008 | inactive: -0.096 | inactive: -0.046 | inactive: -0.028 | inactive: 0
PYGL (UniProt P06737) | inactive: 0.006 | inactive: 0.047 | inactive: 0.026 | inactive: 0.006 | inactive: -0.032
PSPC1 (UniProt Q8WXF1) | inactive: -0.023 | inactive: -0.029 | inactive: 0.038 | inactive: -0.032 | inactive: 0.015
PSMD3 (UniProt O43242) | inactive: 0.028 | inactive: -0.055 | inactive: -0.006 | inactive: -0.023 | inactive: -0.011
PTBP1 (UniProt P26599) | inactive: 0.044 | inactive: 0.026 | inactive: -0.018 | inactive: -0.051 | inactive: -0.017
PUF60 (UniProt Q9UHX1) | inactive: 0.031 | inactive: 0.033 | inactive: 0.081 | inactive: -0.036 | inactive: 0.007
PSMF1 (UniProt Q92530) | inactive: 0.033 | inactive: 0.059 | inactive: 0.106 | inactive: 0.023 | inactive: 0.049
PUS7 isoform 2 (UniProt Q96PZ0) | inactive: 0.007 | inactive: -0.011 | inactive: -0.026 | inactive: 0.013 | inactive: 0.024
PUF60 isoform 2 (UniProt Q9UHX1) | inactive: 0.044 | inactive: 0.097 | inactive: -0.312 | inactive: -0.146 | inactive: -0.079
PWP2 (UniProt Q15269) | inactive: 0.019 | inactive: -0.053 | inactive: -0.05 | inactive: 0.087 | inactive: 0.02
QPRT (UniProt Q15274) | inactive: -0.022 | inactive: 0.002 | inactive: 0.013 | inactive: -0.029 | inactive: -0.013

Taken from above (2 entries):
Target | log2 fold change [1] | log2 fold change [2] | log2 fold change [3] | log2 fold change [4] | log2 fold change [5]
PYM1 (UniProt Q9BRP8) | inactive: 0.051 | inactive: -0.101 | inactive: -0.087 | inactive: 0.056 | inactive: 0.027
PTPMT1 (UniProt Q8WUK0) | inactive: -0.019 | inactive: 0.086 | inactive: 0.029 | inactive: 0.066 | inactive: 0.01

Following part

Target | log2 fold change [1] | log2 fold change [2] | log2 fold change [3] | log2 fold change [4] | log2 fold change [5]
PSRC1 (UniProt Q6PGN9) | inactive: 0 | inactive: -0.057 | inactive: 0.031 | inactive: 0.078 | inactive: -0.005
PUS10 (UniProt Q3MIT2) | inactive: 0 | inactive: 0.031 | inactive: 0.059 | inactive: 0.011 | inactive: -0.121
PYCARD (UniProt Q9ULZ3) | inactive: -0.05 | inactive: 0.072 | inactive: 0.076 | inactive: -0.053 | inactive: -0.022
PUM2 (UniProt Q8TB72) | inactive: 0.041 | inactive: 0.002 | inactive: 0.046 | inactive: 0.072 | inactive: -0.045
PYGB (UniProt P11216) | inactive: 0.024 | inactive: 0.037 | inactive: 0.003 | inactive: 0.015 | inactive: -0.003
PSMA4 (UniProt P25789) | inactive: 0.019 | inactive: -0.039 | inactive: -0.057 | inactive: 0.005 | inactive: 0.049
PSMB7 (UniProt Q99436) | inactive: 0.086 | inactive: -0.03 | inactive: -0.023 | inactive: 0.017 | inactive: 0.042
PXMP2 (UniProt Q9NR77) | inactive: 0.042 | inactive: 0.04 | inactive: 0.066 | inactive: -0.007 | inactive: 0.017
PSMD10 (UniProt O75832) | inactive: -0.019 | inactive: 0.028 | inactive: 0.121 | inactive: -0.063 | inactive: -0.067
PTPN11 isoform 1 (UniProt Q06124) | inactive: -0.029 | inactive: 0.035 | inactive: 0 | inactive: -0.019 | inactive: -0.021
PUDP isoform 4 (UniProt Q08623) | inactive: 0.007 | inactive: 0.097 | inactive: 0 | inactive: -0.071 | inactive: -0.014
PSMB6 (UniProt P28072) | inactive: 0.023 | inactive: -0.057 | inactive: -0.015 | inactive: 0.019 | inactive: 0.081
PTK2 (UniProt Q05397) | inactive: 0.041 | inactive: 0.034 | inactive: 0.016 | inactive: -0.008 | inactive: 0
PTPN12 (UniProt Q05209) | inactive: 0.035 | inactive: 0.034 | inactive: 0.091 | inactive: 0.024 | inactive: 0.015
PSMD6 (UniProt Q15008) | inactive: 0.019 | inactive: -0.088 | inactive: -0.116 | inactive: -0.006 | inactive: 0.001
PSMG2 (UniProt Q969U7) | inactive: 0.014 | inactive: 0.004 | inactive: 0.027 | inactive: -0.022 | inactive: 0.013
PYURF (UniProt Q96I23) | inactive: -0.094 | inactive: 0.025 | inactive: 0.084 | inactive: -0.064 | inactive: 0.105
PSME1 (UniProt Q06323) | inactive: -0.018 | inactive: 0.025 | inactive: 0.036 | inactive: -0.029 | inactive: -0.025
QPCTL (UniProt Q9NXS2) | inactive: 0.053 | inactive: -0.001 | inactive: 0.008 | inactive: 0.016 | inactive: -0.02
PSMC3IP (UniProt Q9P2W1) | inactive: -0.003 | inactive: 0.108 | inactive: 0.184 | inactive: 0.142 | inactive: 0.097
PTPA (UniProt A6PVN8) | inactive: 0.011 | inactive: 0.011 | inactive: 0.001 | inactive: -0.015 | inactive: 0.148
PSMC6 (UniProt P62333) | inactive: 0.04 | inactive: -0.087 | inactive: -0.037 | inactive: 0.017 | inactive: 0.006
PTRH2 (UniProt Q9Y3E5) | inactive: 0.018 | inactive: 0.068 | inactive: 0.019 | inactive: -0.106 | inactive: -0.02
QARS (UniProt P47897) | inactive: 0.116 | inactive: -0.231 | inactive: -0.035 | inactive: 0.315 | inactive: 0.024
PSMG3 (UniProt Q9BT73) | inactive: 0.02 | inactive: 0.079 | inactive: -0.057 | inactive: -0.102 | inactive: 0.067
PSAP isoform 3 (UniProt P07602) | inactive: -0.037 | inactive: 0.024 | inactive: -0.019 | inactive: 0.006 | inactive: -0.016
